{"source": "paper PMC12040169", "about": "(PLOS Biology, 2025)", "note": "Some of the results follow."}
{"tested_on": "T1, CTL2-GFP (C. trachomatis L2/434/Bu, GFP-expressing)", "T1 construct": "L2/434/Bu, GFP-expressing", "set-up": "species or system HeLa; Intracellular C. trachomatis growth in HeLa cells, bulk GFP fluorescence relative to DMSO", "settings": "bulk GFP, single well; 28.5 h, 10 µM; inhibitor", "units": {"% of control remaining": "%"}}
{"smiles": "c1ccc(CC(Cc2nc3ccccc3[nH]2)c2nc3ccccc3[nH]2)cc1", "note": "(stereo not drawn) [CBK150452]", "% of control remaining": 120.888}
{"smiles": "Cc1nc2ccccn2c1-c1csc(N)n1", "note": "[CBK288628B]", "% of control remaining": 89.1862}
{"smiles": "O=S(=O)(c1ccccc1)C1CC1", "note": "[CBK023184]", "% of control remaining": 134.781}
{"smiles": "CC(=O)NCc1cccc(-c2cc(C(=O)O)cnc2-c2ccc(Cl)cc2)c1", "note": "[CBK156194]", "% of control remaining": 103.279}
{"smiles": "O=[N+]([O-])c1ccc(N2CCN(S(=O)(=O)c3ccc4ccccc4c3)CC2)cc1NC1CC1", "note": "[CBK264361]", "% of control remaining": 120.424}
{"smiles": "O=C(CSCc1ccccc1)Nc1ccc(O)cc1C(=O)O", "note": "[CBK126817]", "% of control remaining": 97.1617}
{"smiles": "O=C(NCc1ccc(-c2csnn2)cc1)c1cccc(C(F)(F)F)c1", "note": "[CBK149293]", "% of control remaining": 122.775}
{"smiles": "O=C(NCCCO)C1CCCN(S(=O)(=O)c2ccc3ccccc3c2)C1", "note": "(stereo not drawn) [CBK270141]", "% of control remaining": 154.836}
{"smiles": "CCOCCCNC(=O)c1cnn2c(C)c(Cc3cccc(OC)c3)c(C)nc12", "note": "[CBK162056]", "% of control remaining": 127.573}
{"smiles": "O=C1COc2ccccc2C/C=C/CC2(CCN(C(=O)c3cncc(O)c3)CC2)C(=O)NCCN1", "note": "[CBK291989]", "% of control remaining": 161.244}
{"smiles": "CCCc1cc(C(=O)NC2(CN3CCCC3)CCCCC2)[nH]n1", "note": "[CBK282464]", "% of control remaining": 137.049}
{"smiles": "NC(=O)C1(Cc2ccc(-c3ccccc3)cc2)CCN(C(=O)Cc2ccccc2)CC1", "note": "[CBK285771]", "% of control remaining": 79.6177}
{"smiles": "COc1cccc(C(NC(=O)c2cccc(Cn3ccnc3C)c2)c2ccccc2)c1", "note": "(stereo not drawn) [CBK285620]", "% of control remaining": 88.9328}
{"smiles": "O=C(c1cc(F)c(F)cc1F)N1CCC2(CCCN(CCN3CCOCC3)C2)C1", "note": "(stereo not drawn) [CBK132015]", "% of control remaining": 117.447}
{"smiles": "O=C(CO)N1CC2(CCN(Cc3cccc4cccnc34)CC2)c2ccccc21", "note": "[CBK137004]", "% of control remaining": 80.0776}
{"smiles": "COc1ncc(-c2cncc(N3CCN(c4ccccc4C#N)CC3)n2)c(OC)n1", "note": "[CBK037872]", "% of control remaining": 114.993}
{"smiles": "NNC(=O)CCc1nc2cc(O)ccc2[nH]1", "note": "[CBK263633]", "% of control remaining": 118.963}
{"smiles": "Cc1nc(CNC(=O)NC2CCCN(c3ncccn3)C2)cs1", "note": "(stereo not drawn) [CBK305640]", "% of control remaining": 101.869}
{"smiles": "CCOC(=O)c1[nH]c2ccccc2c1NC(=O)c1ccc(OC(F)(F)F)cc1", "note": "[CBK160157]", "% of control remaining": 118.144}
{"smiles": "c1ccc(-c2cc(CC3(NCc4cc5ccccc5o4)COC3)no2)nc1", "note": "[CBK289239]", "% of control remaining": 133.664}
{"smiles": "Clc1ccc(COc2nccnc2N2CCN(Cc3ccc4c(c3)OCO4)CC2)cc1Cl", "note": "[CBK083078T]", "% of control remaining": 87.9479}
{"smiles": "Cc1nc2c(c(=O)[nH]1)CN(CC1CCCCC1)CC2", "note": "[CBK283947]", "% of control remaining": 114.142}
{"smiles": "COc1ncc(-c2nccnc2NCCc2ccncc2)c(OC)n1", "note": "[CBK038074]", "% of control remaining": 151.496}
{"smiles": "COc1ccc(Cc2c(C)nc3c(C(=O)NCCSC)cnn3c2C)cc1", "note": "[CBK162191]", "% of control remaining": 113.671}
{"smiles": "CCNS(=O)(=O)c1ccc(NC(=O)Nc2cc(C)ccc2OC)cc1", "note": "[CBK266850]", "% of control remaining": 107.248}
{"smiles": "N#Cc1cccnc1N1CCC(NC(=O)Cn2cccnc2=O)CC1", "note": "[CBK307275]", "% of control remaining": 122.995}
{"smiles": "CN(C)CCCNC(=O)c1cc(-c2ccc(Cl)cc2)on1", "note": "[CBK116557]", "% of control remaining": 147.843}
{"smiles": "Cc1ccc(S(=O)(=O)CC(=O)Nc2ncccn2)cc1", "note": "[CBK269800]", "% of control remaining": 130.546}
{"smiles": "N#Cc1ccc2nc([C@H]3CCN(C(=O)c4ccccc4)C3)[nH]c2c1", "note": "[CBK289379]", "% of control remaining": 127.975}
{"smiles": "CCNC(=O)N1C[C@@H]2OCC(=O)N(Cc3ccccc3)[C@@H]2C1", "note": "[CBK289679]", "% of control remaining": 144.488}
{"smiles": "CCN(CC)C(=O)CN1CCN(c2nccnc2OCc2cccnc2)CC1", "note": "[CBK083140]", "% of control remaining": 100.921}
{"smiles": "CC(NC(=O)c1ccc(F)cc1Cl)c1ccccc1", "note": "(stereo not drawn) [CBK270317]", "% of control remaining": 117.007}
{"smiles": "Cc1c(NC(=S)NCCCN2CCOCC2)c(=O)n(-c2ccccc2)n1C", "note": "[CBK008032]", "% of control remaining": 133.536}
{"smiles": "CCOC(=O)N1CCC(NC(=O)N2CCN(c3ccc(F)cc3)CC2)CC1", "note": "[CBK156429]", "% of control remaining": 98.0239}
{"smiles": "CC(SC1CCc2ccccc2NC1=O)C(=O)O", "note": "(stereo not drawn) [CBK286652]", "% of control remaining": 131.677}
{"smiles": "O=C1NC[C@@H](Cc2ccccc2)NC(=O)C2(C/C=C/COc3ccccc31)CCN(C(=O)CN1CCCC1)CC2", "note": "[CBK292184]", "% of control remaining": 111.596}
{"smiles": "Cc1nc(C)c(C(=O)NCC(C)(C)N2CCCCC2)o1", "note": "[CBK281866]", "% of control remaining": 103.668}
{"smiles": "O=C1N[C@@H]2CCN(C(=O)COc3cccnc3)C[C@@H]2CCCCCOc2ccccc21", "note": "[CBK292037]", "% of control remaining": 138.776}
{"smiles": "Cc1cc(S(=O)(=O)Nc2cccc(C(=O)O)c2)c(C)c(S(=O)(=O)c2ccccc2)c1", "note": "[CBK263227]", "% of control remaining": 121.981}
